Data reported in the supplement of paper PMC8728848.
Some of the results follow.

Key:
Assay in all cases: glycan array binding signal (z-score within array); higher = stronger binding
Details in all cases: glycan notation: IUPAC condensed, linker removed
[1] = target: Neu5Ac(a2-6)Gal(b1-4)GlcNAc(b1-3)Gal(b1-4)GlcNAc(b1-3)Gal(b1-4)GlcNAc
Outline: (§1)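 Glycan array data came from 3228 arrays in the Consortium for Functional Glycomics database, and only arrays with an available protein sequence were kept. Glycan names were put into IUPAC-condensed notation, and columns mapping to the same glycan were averaged. The binding signal is a within-array Z-score, averaged across arrays of one protein sequence run at different concentrations or buffers and across linkers. A negative Z-score can be read as non-binding.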

[2] = target: Neu5Ac(a2-6)Gal(b1-4)GlcNAc(b1-3)Gal(b1-4)GlcNAc(b1-3)Gal(b1-4)GlcNAc(b1-2)Man(a1-3)[Neu5Ac(a2-6)Gal(b1-4)GlcNAc(b1-3)Gal(b1-4)GlcNAc(b1-3)Gal(b1-4)GlcNAc(b1-2)Man(a1-6)]GalNAc
Outline: as §1

[3] = target: Neu5Ac(a2-6)Gal(b1-4)GlcNAc(b1-3)Gal(b1-4)GlcNAc(b1-3)GalNAc
Outline: as §1

[4] = target: Neu5Ac(a2-6)Gal(b1-4)GlcNAc(b1-3)Gal(b1-4)GlcNAc(b1-3)[Neu5Ac(a2-6)Gal(b1-4)GlcNAc(b1-3)Gal(b1-4)GlcNAc(b1-6)]GalNAc
Outline: as §1

[5] = target: Neu5Ac(a2-6)Gal(b1-4)GlcNAc(b1-3)Gal(b1-4)GlcNAc(b1-6)[Gal(b1-3)]GalNAc
Outline: as §1

[6] = target: Neu5Ac(a2-6)Gal(b1-4)GlcNAc(b1-3)Gal(b1-4)[Fuc(a1-3)]GlcNAc(b1-3)Gal(b1-4)[Fuc(a1-3)]GlcNAc
Outline: as §1

[7] = target: Neu5Ac(a2-6)Gal(b1-4)GlcNAc(b1-3)GalNAc
Outline: as §1

[8] = target: Neu5Ac(a2-6)Gal(b1-4)GlcNAc(b1-3)[Neu5Ac(a2-6)Gal(b1-4)GlcNAc(b1-6)]GalNAc
Outline: as §1

[9] = target: Neu5Ac(a2-6)Gal(b1-4)GlcNAc(b1-6)GalNAc
Outline: as §1

[10] = target: Neu5Ac(a2-6)Gal(b1-4)GlcNAc(b1-6)[Gal(b1-3)GlcNAc(b1-3)]Gal(b1-4)Glc
Outline: as §1

[11] = target: Neu5Ac(a2-6)Gal(b1-4)GlcNAc(b1-6)[Gal(b1-3)]GalNAc
Outline: as §1

[12] = target: Neu5Ac(a2-6)Gal(b1-4)GlcNAc6S
Outline: as §1

Neu5Ac(a2-6)GalNAc = target: Neu5Ac(a2-6)GalNAc
Outline: as §1

[13] = target: Neu5Ac(a2-6)GalNAc(b1-4)GlcNAc
Outline: as §1

[14] = target: Neu5Ac(a2-6)GalNAc(b1-4)GlcNAc6S
Outline: as §1

[15] = target: Neu5Ac(a2-6)GlcNAc(b1-4)GlcNAc
Outline: as §1

[16] = target: Neu5Ac(a2-6)GlcNAc(b1-4)GlcNAc(b1-4)GlcNAc
Outline: as §1

Neu5Ac(a2-8)Neu5Ac = target: Neu5Ac(a2-8)Neu5Ac
Outline: as §1

[17] = target: Neu5Ac(a2-8)Neu5Ac(a2-3)Gal(b1-3)GalNAc(b1-4)[Neu5Ac(a2-3)]Gal(b1-4)Glc
Outline: as §1

[18] = target: Neu5Ac(a2-8)Neu5Ac(a2-3)Gal(b1-3)GalNAc(b1-4)[Neu5Ac(a2-8)Neu5Ac(a2-3)]Gal(b1-4)Glc
Outline: as §1

[19] = target: Neu5Ac(a2-8)Neu5Ac(a2-3)Gal(b1-4)Glc
Outline: as §1

[20] = target: Neu5Ac(a2-8)Neu5Ac(a2-3)Gal(b1-4)GlcNAc
Outline: as §1

[21] = target: Neu5Ac(a2-8)Neu5Ac(a2-3)[Gal(b1-3)GalNAc(b1-4)]Gal(b1-4)Glc
Outline: as §1

[22] = target: Neu5Ac(a2-8)Neu5Ac(a2-3)[GalNAc(b1-4)]Gal(b1-4)Glc
Outline: as §1

[23] = target: Neu5Ac(a2-8)Neu5Ac(a2-8)Neu5Ac
Outline: as §1

[24] = target: Neu5Ac(a2-8)Neu5Ac(a2-8)Neu5Ac(a2-3)Gal(b1-4)Glc
Outline: as §1

[25] = target: Neu5Ac(a2-8)Neu5Ac(a2-8)Neu5Ac(a2-3)[Gal(b1-3)GalNAc(b1-4)]Gal(b1-4)Glc
Outline: as §1

[26] = target: Neu5Ac(a2-8)Neu5Ac(a2-8)Neu5Ac(a2-3)[GalNAc(b1-4)]Gal(b1-4)Glc
Outline: as §1

[27] = target: Neu5Ac(a2-8)Neu5Ac(a2-8)Neu5Ac(a2-8)Neu5Ac(a2-3)[GalNAc(b1-4)]Gal(b1-4)Glc
Outline: as §1

[28] = target: Neu5Ac(a2-8)Neu5Gc(a2-3)Gal(b1-4)GlcNAc
Outline: as §1

[29] = target: Neu5Ac(b2-6)Gal(b1-4)GlcNAc
Outline: as §1

Neu5Ac(b2-6)GalNAc = target: Neu5Ac(b2-6)GalNAc
Outline: as §1

[30] = target: Neu5Ac9Ac(a2-3)Gal(b1-3)GlcNAc
Outline: as §1

[31] = target: Neu5Ac9Ac(a2-3)Gal(b1-4)GlcNAc
Outline: as §1

[32] = target: Neu5Ac9Ac(a2-6)Gal(b1-4)GlcNAc
Outline: as §1

[33] = target: Neu5Gc(a2-3)Gal(b1-3)GlcNAc
Outline: as §1

[34] = target: Neu5Gc(a2-3)Gal(b1-3)[Fuc(a1-4)]GlcNAc
Outline: as §1

Neu5Gc(a2-3)Gal(b1-4)Glc = target: Neu5Gc(a2-3)Gal(b1-4)Glc
Outline: as §1

[35] = target: Neu5Gc(a2-3)Gal(b1-4)GlcNAc
Outline: as §1

[36] = target: Neu5Gc(a2-3)Gal(b1-4)GlcNAc(b1-3)Gal(b1-4)GlcNAc(b1-2)Man(a1-3)[Neu5Gc(a2-3)Gal(b1-4)GlcNAc(b1-3)Gal(b1-4)GlcNAc(b1-2)Man(a1-6)]Man(b1-4)GlcNAc(b1-4)GlcNAc
Outline: as §1

[37] = target: Neu5Gc(a2-3)Gal(b1-4)[Fuc(a1-3)]GlcNAc
Outline: as §1

[38] = target: Neu5Gc(a2-6)Gal(b1-4)GlcNAc
Outline: as §1

Neu5Gc(a2-6)GalNAc = target: Neu5Gc(a2-6)GalNAc
Outline: as §1

[39] = target: Neu5Gc(a2-8)Neu5Ac(a2-3)Gal(b1-4)GlcNAc
Outline: as §1

[40] = target: Neu5Gc(a2-8)Neu5Gc(a2-3)Gal(b1-4)GlcNAc
Outline: as §1

B1: AT5G24760(45) (Arabidopsis thaliana), Q8LEB2 (protein)
chain: MSASSSSFEQPQVITCNAAVAWRAGEPLVMEEVEVSPPQPLEIRIKVVCTSLCRSDLSAWESQSLLPRIFGHEAAGIVESIGEGVTEFEKGDHVLAVFTGECGSCRHCISGKSNMCQVLGMERKGLMHSDQKTRFSIKGKPVYHYCAVSSFSEYTVVHSGCAVKVDPLAPLHKICLLSCGVAAGLGAAWNVADVQKGSSVVIFGLGTVGLSVAQGAKLRGAAQILGVDINPAKAEQAKTFGVTDFINSNDLSEPIPQVIKRMTGGGADFSFECVGDTGIATTALQSCSDGWGMTVTLGVPKAKPEVSAHYGLFLSGKSLKGTLFGGWKPKSDLPSLIDKYMNKEIMIDEFITHNLSFDEINKAFVLMREGKCLRCVLHMPK
**Q.** Which results are given for B1?
**A.** glycan array binding signal (z-score) [1]: -1.08; glycan array binding signal (z-score) [2]: -0.325; glycan array binding signal (z-score) [3]: -1.39; glycan array binding signal (z-score) [4]: -0.602; glycan array binding signal (z-score) [5]: -0.499; glycan array binding signal (z-score) [6]: -0.595; glycan array binding signal (z-score) [7]: 1.66; glycan array binding signal (z-score) [8]: -1.08; glycan array binding signal (z-score) [9]: 0.599; glycan array binding signal (z-score) [10]: 0.133; glycan array binding signal (z-score) [11]: -0.895; glycan array binding signal (z-score) [12]: 0.165; glycan array binding signal (z-score) (Neu5Ac(a2-6)GalNAc): 0.118; glycan array binding signal (z-score) [13]: -0.345; glycan array binding signal (z-score) [14]: -0.585; glycan array binding signal (z-score) [15]: -0.617; glycan array binding signal (z-score) [16]: -0.415; glycan array binding signal (z-score) (Neu5Ac(a2-8)Neu5Ac): -0.417; glycan array binding signal (z-score) [17]: -0.193; glycan array binding signal (z-score) [18]: 0.742; glycan array binding signal (z-score) [19]: -0.912; glycan array binding signal (z-score) [20]: -0.977; glycan array binding signal (z-score) [21]: -0.745; glycan array binding signal (z-score) [22]: -0.388; glycan array binding signal (z-score) [23]: -0.52; glycan array binding signal (z-score) [24]: -0.582; glycan array binding signal (z-score) [25]: 0.125; glycan array binding signal (z-score) [26]: -0.3; glycan array binding signal (z-score) [27]: -0.891; glycan array binding signal (z-score) [28]: -0.69; glycan array binding signal (z-score) [29]: 0.859; glycan array binding signal (z-score) (Neu5Ac(b2-6)GalNAc): -0.023; glycan array binding signal (z-score) [30]: -0.638; glycan array binding signal (z-score) [31]: -0.392; glycan array binding signal (z-score) [32]: 0.139; glycan array binding signal (z-score) [33]: 1.13; glycan array binding signal (z-score) [34]: -0.429; glycan array binding signal (z-score) (Neu5Gc(a2-3)Gal(b1-4)Glc): 0.633; glycan array binding signal (z-score) [35]: -0.402; glycan array binding signal (z-score) [36]: -0.38; glycan array binding signal (z-score) [37]: -0.203; glycan array binding signal (z-score) [38]: 0.288; glycan array binding signal (z-score) (Neu5Gc(a2-6)GalNAc): -0.275; glycan array binding signal (z-score) [39]: -1.3; glycan array binding signal (z-score) [40]: -0.657
